Hit rate of the full screen: of about 52,000 sequences, about 210 (0.4%) were called active.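 Rule for the calls: active = gene whose silencing raises cell survival under the drug, median off-target-corrected z-score across its silencing RNAs 2 or more; inactive = the rest.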 This is one part of the list.
Assay: Resistance to Poly (ADP-Ribose) Polymerase inhibitor: Gene Identification via Genome-wide siRNA Screen
Conditions: mouse BRCA2 R2336H ES cells, olaparib, CellTiter-Glo viability; active compounds read high
Method in brief: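 Mouse BRCA2 R2336H ES cells were reverse-transfected with siRNA (20 nM final), treated at 48 h with 500 nM olaparib, and read by CellTiter-Glo after 72 h. Scores: MAD-based z per siRNA, median per gene, seed off-target correction.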

Sequence | z-score
GGCAGAAGUCAUCAACCAATT against Bcl2l12 | inactive: -0.548
GGCUGAGGCUCAUUACAAGTT against A930006D11 | inactive: -1.46
GGUGAUCAUGCUAACCUUUTT against Pcolce | inactive: 0.206
GGCACUGUGUCAAGGUAAGTT against A230058J24Rik | inactive: -1.57
GCGAAACAUAAACUGGGCATT against Fgd2 | inactive: -0.489
GCUGAGGACAUAUAAACUCTT against Nipsnap1 | inactive: -0.264
GCAUUUCGAAGUGCCCUUGTT against D830046C22Rik | inactive: -2.53
GGCAUCAAAGAGAUCAUAGTT against Atp8a2 | inactive: -2.9
GGUGUCGGAUAUAGAAAAGTT against Pnma1 | inactive: -0.145
GGACAAGAACCUGAAGCGGTT against Cdk5r1 | inactive: -0.584
GCCUUCCUAAAGGAUUACUTT against Ndst1 | inactive: 0.533
GCCGAAUCACUUAAGUCCATT against Fbln1 | inactive: 1.24
GGUAUUCAAUACACAAUUCTT against Mlh1 | inactive: -0.391
GGACCUAAGGACUUGUUGATT against Chdh | inactive: 0.726
GGCUUAAGGUGAGAUAUUCTT against Sp9 | inactive: -0.226
GGCCAGACAUGUUGAAGAATT against Ssna1 | inactive: -1.49
GUCAUGCAGCUCCUUUGGUTT against Olfr635 | inactive: -1.58
GGGACAGUACAGAGUGCUGTT against Hmx1 | inactive: -1.4
GGAAAAUGUAAACAAGUACTT against Xpo5 | inactive: -1.78
GGAAGAAAGAGAGGUGUGATT against Nxf2 | inactive: -1.73
GCCUGUUCUAGUGGUUCUUTT against 2300006N05Rik | inactive: -2.07
GGACUCUGACAAUUUUAUCTT against Pet2 | inactive: 0.165
GCAAAACCCAACAACUCUGTT against Lig3 | inactive: -2.41
GCAAAAUGGUUCCUUUGGATT against Sec24c | inactive: -1.26
GCUAUCGGCGUGAUUCAGATT against Fut7 | inactive: 1.26
GGUAAUGAGCAGAUGAAGCTT against Sgta | inactive: -1.54
GGUUAUCACAGGUAAAUGATT against Sim1 | inactive: -0.727
CGUUAGCAUCAGGUCAAGUTT against Zfp251 | inactive: 0.834
GGCUGUGUUGUCGAUUUCCTT against E130310K16Rik | inactive: -0.421

Reformatted field by field: entries from further up.
GGUGAUCAUGCUAACCUUUTT against Pcolce
  z-score: inactive: 0.206
GGCACUGUGUCAAGGUAAGTT against A230058J24Rik
  z-score: inactive: -1.57

Source: PubChem BioAssay AID1347423 (Functional Genomics Laboratory (NCATS/FGL), 2020)
